In PubChem BioAssay AID504834 (National Center for Advancing Translational Sciences (NCATS), 2011):
The whole screen tested about 320,000 compounds, of which about 22,000 (6.9%) were called active. This list was built around the results that the source calls inconclusive (neither active nor inactive); the mix of calls is not that of the screen. Calls come from the whole dose curve; as a rule, active = well fitted inhibition curve with a large enough effect; inconclusive = small, poorly fitted or top-dose-only effect, or another doubt; inactive = no such curve, though single readings can be large or run the other way. Where the call is inconclusive, the potency comes from a doubtful curve fit.
% is set by controls: 0 for no effect and ±100 for the full control effect; potency is the fitted concentration of half-maximal effect.

Experiment: Primary qHTS for delayed death inhibitors of the malarial parasite plastid, 96 hour incubation
Settings: P. falciparum luciferase reporter growth; series mostly up to 28.7 µM; activity change, negative = inhibition: at the top concentration
Procedure, shortened: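 P. falciparum expressing integrated firefly luciferase grown in erythrocytes (2% hematocrit, 0.05% parasitemia final) with compounds for 96 hours at 37 C, 5% CO2. Growth inhibition read as loss of luminescence after adding luciferase detection reagent.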
With O=C(COn1nnc2ccc(Cl)cc21)Nc1ccc(F)cc1 the Potency was inconclusive: 1.04 µM [inhibitor, partial curve, poor fit].
With CCC1CN(C(=O)N2CCC(C(=O)NCc3cccc(F)c3)CC2)c2ccccc2O1 (stereo not given) the Potency was active: 9.28 µM.
For CCn1c(=S)[nH]c2sc3c(c2c1=O)CCCCC3, the Potency was inconclusive: 2.33 µM [inhibitor, full curve].
For Cc1nc(SCc2nc3ccccc3[nH]2)c2oc3ccccc3c2n1, the Potency was inconclusive: 10.4 µM [inhibitor, partial curve, poor fit].
With O=C1c2ccccc2C(=O)N1CCc1nc2ccccc2c(=O)n1-c1ccccn1 the Potency was inconclusive: 13.1 µM [inhibitor, partial curve, poor fit].
In the case of O=C(N/N=C/c1cn(-c2ccccc2)nc1-c1cccnc1)c1ccc(F)cc1, the Potency is reported as inconclusive: 1.47 µM [inhibitor, full curve, poor fit].
In the case of Cc1csc(N/N=C\c2cccnc2)n1, the “activity change, negative = inhibition” value is reported as inactive: 18.8%.
For CC(C)CC(=O)Nc1ccnn1C1CCN(C(=O)c2ccc(F)cc2Cl)CC1, the “activity change, negative = inhibition” value was inactive: -2.53%.
For CCCCNc1c2c3c(cccc3n(C)c1=O)C(=O)c1ccccc1-2, the Potency was inconclusive: 9.28 µM [inhibitor, single point].
In the case of O=C(Cn1c(COc2ccc(Cl)cc2)nc2ccccc21)NCC(F)(F)F, the Potency is reported as inconclusive: 18.5 µM [inhibitor, single point].
In the case of Cc1noc(C)c1C(=O)Nc1c(F)cc(F)cc1Br, the “activity change, negative = inhibition” value is reported as inactive: -16.4%.
In the case of COc1ccc(N=c2oc3cc(O)ccc3cc2C(=O)NCC2CCCO2)cc1 (stereo not given), the Potency is reported as inconclusive: 0.0657 µM [inhibitor, full curve, poor fit].
With O=C(CC(c1ccc(F)cc1)c1ccco1)N1CCCC1 (stereo not given) the Potency was inconclusive: 18.5 µM [inhibitor, single point].
In the case of COc1ccc(-c2csc(NC(=O)c3ccoc3C)n2)cc1, the “activity change, negative = inhibition” value is reported as inactive: 17.9%.
With O=C(Nc1ccc(F)cc1)c1ccc(-n2ccnc2)nc1 the Potency was inconclusive: 16.5 µM [inhibitor, single point].
In the case of CCC(C)NC(=O)CSc1nnc(-c2ccoc2C)n1CC1CCCO1 (stereo not given), the Potency is reported as inconclusive: 18.5 µM [inhibitor, single point].
With Cc1cc(C)cc(N(CC(=O)NCc2ccco2)C(=O)CCC(=O)Nc2ccccn2)c1 the “activity change, negative = inhibition” value was inactive: 50.3%.
With O=C(CN(Cc1ccco1)S(=O)(=O)c1cccs1)Nc1ccccc1C(F)(F)F the Potency was inconclusive: 0.329 µM [inhibitor, full curve, poor fit].
With Cc1ccc(-c2nnc(N(C)C(=O)c3ccncc3)s2)cn1 the Potency was inconclusive: 18.5 µM [inhibitor, single point].
With COCCn1cnc2c1c(=O)n(CC#N)c(=O)n2Cc1ccccc1 the Potency was inconclusive: 14.7 µM [inhibitor, partial curve, poor fit].
With Fc1ccccc1/C=N/n1cc(-c2ccccc2)[nH]c1=S the Potency was inconclusive: 10.4 µM [inhibitor, single point].
For Cc1cc(=O)oc2cc(OCC(=O)NCCCN3CCOCC3)ccc12, the Potency was inconclusive: 18.5 µM [inhibitor, single point].
With Cc1cc(C)c(-n2nnnc2SCC(=O)c2cc3ccccc3o2)c(C)c1 the Potency was inconclusive: 14.7 µM [inhibitor, single point].
In the case of CCC(=O)N/N=C(\C)CC(=O)Nc1cccc([N+](=O)[O-])c1, the Potency is reported as inconclusive: 9.28 µM [inhibitor, single point].
In the case of COc1cc(S(=O)(=O)N2CCN(C(=O)c3ccccc3)CC2)c(OC)cc1Br, the “activity change, negative = inhibition” value is reported as inactive: 19.6%.
With O=C(NC(=S)NC1C2CC3CC(C2)CC1C3)c1ccccc1 (stereo not given) the Potency was active: 10.4 µM.
For O=C(COC(=O)c1ccc(Br)o1)Nc1ccc2[nH]c(=O)[nH]c2c1, the Potency was inconclusive: 18.5 µM [inhibitor, partial curve, poor fit].
With Cc1ccccc1N/C(SCc1ccc(Cl)cc1)=C(/C#N)C(N)=O the Potency was inconclusive: 4.15 µM [inhibitor, single point].
With CCN(CC)c1nc(-c2ccc(C(=O)NN)cc2)nc(-c2ccc(C(=O)NN)cc2)n1 the Potency was inconclusive: 9.28 µM [inhibitor, partial curve].
With O=C(CCn1c(=O)[nH]c2ccccc2c1=O)NCCCN1CCN(c2cccc(Cl)c2)CC1 the Potency was inconclusive: 0.928 µM [inhibitor, full curve].
For CCC1C(=O)N=C(SCC(=O)Nc2nc3ccccc3s2)NC1=O (stereo not given), the “activity change, negative = inhibition” value was inactive: -29.7%.
In the case of CC(Nc1cc(=O)n(C)c(=O)[nH]1)c1ccccc1 (stereo not given), the Potency is reported as inconclusive: 18.5 µM [inhibitor, single point].
For Cc1cc(C)c(C#N)c(SCC(=O)Nc2ccccc2C(N)=O)n1, the “activity change, negative = inhibition” value was inactive: -6.02%.
For Cc1cccc(C)c1OCc1cc(C(=O)NCc2cn(C)nc2C)no1, the Potency was inconclusive: 13.1 µM [inhibitor, single point].
For O=C1/C(=C/c2ccc(O)c(O)c2)Oc2cc(O)ccc21, the “activity change, negative = inhibition” value was inactive: -14%.
For CCC(=O)Nc1cc(C)c(OC)c(C)c1, the Potency was inconclusive: 0.037 µM [inhibitor, full curve, poor fit].
In the case of O=c1c2c3c(sc2ncn1-n1cccc1)CCCCC3, the Potency is reported as inconclusive: 18.5 µM [inhibitor, single point].
For CNC(=O)N1c2ccccc2CCc2ccccc21, the Potency was inconclusive: 11.7 µM [inhibitor, single point].
In the case of CN1CCN(C2=C(NS(=O)(=O)c3ccccc3)C(=O)c3ccccc3C2=O)CC1, the Potency is reported as inconclusive: 4.65 µM [inhibitor, partial curve].
In the case of CSc1ccc(S(=O)(=O)N(CC(=O)NN=C2CCN(C)CC2)c2ccc(C)cc2)cc1, the Potency is reported as inconclusive: 11.7 µM [inhibitor, single point].
For O=C(NCC(=O)N(CCc1ccccc1)C(C(=O)NC1CCCCC1)c1ccncc1)c1ccco1 (stereo not given), the “activity change, negative = inhibition” value was inactive: 11.4%.
In the case of CCC1CCCCN1C(=O)CSc1nc2ccsc2c(=O)n1Cc1ccccc1 (stereo not given), the Potency is reported as inconclusive: 8.28 µM [inhibitor, partial curve, poor fit].
With CCCCCCCNC(=O)C1(CC2CC(c3ccc(Cl)cc3)=NO2)CCN(C(=O)c2cc(OCC)c(OCC)c(OCC)c2)CC1 (stereo not given) the Potency was active: 0.329 µM.
With O=S(=O)(Nc1cc2nc3ccccc3nc2n1Cc1ccccc1)c1ccc(Cl)cc1 the Potency was active: 0.828 µM.
With CCC1CCCCN1CCCNC(=O)c1ccc2c(c1)NC(=O)CN2C (stereo not given) the “activity change, negative = inhibition” value was inactive: 61.7%.
For O=S(=O)([N-]c1nc2ccccc2nc1-n1cc[n+](Cc2ccccc2)c1)c1ccccc1, the “activity change, negative = inhibition” value was inactive: -6.12%.
For O=C(Cc1ccccc1F)Nc1cccc2cccnc12, the “activity change, negative = inhibition” value was inactive: 27%.
For CCOC(=O)N1CCN(C(=O)CSc2nc(C)nc3c2c(=O)n(C)c(=O)n3C)CC1, the Potency was inconclusive: 1.47 µM [inhibitor, partial curve].
For COc1ccc(C(=O)Nc2ccc3nc4n(c(=O)c3c2)CCCC4)cc1[N+](=O)[O-], the “activity change, negative = inhibition” value was inactive: -26.5%.
With N=c1c2c(ncn1Cc1ccco1)Oc1c(ccc3ccccc13)C2c1ccccc1 (stereo not given) the Potency was inconclusive: 14.7 µM [inhibitor, single point].
In the case of CCOC(=O)Cn1c(=O)oc2cc(S(=O)(=O)NC(C)c3ccccc3)ccc21 (stereo not given), the Potency is reported as active: 8.28 µM.
In the case of CN1CCN(C(=O)c2cc([N+](=O)[O-])ccc2Cl)CC1, the Potency is reported as inconclusive: 18.5 µM [inhibitor, single point].
With CC(NC(=O)CCc1nnc(-c2ccccc2)o1)c1ccccc1 (stereo not given) the Potency was inconclusive: 11.7 µM [inhibitor, single point].
In the case of CC(=O)N1CCN(c2ccc(NC(=O)c3ccc(F)cc3)cc2)CC1, the Potency is reported as inconclusive: 18.5 µM [inhibitor, single point].
For C#Cc1ccc([C@@H]2C=C(C(=O)N3CCN(Cc4ccccc4)CC3)O[C@H](OCCCCO)C2)cc1, the Potency was inconclusive: 18.5 µM [inhibitor, single point].
For Cc1cc(/C=C2/NC(=O)NC2=O)c(C)n1-c1ccccn1, the Potency was active: 9.28 µM.
For O=S(=O)(NCC(c1cccnc1)N1CCN(Cc2ccccc2)CC1)c1ccc(Cl)cc1 (stereo not given), the Potency was inconclusive: 2.08 µM [inhibitor, full curve].
For O=C(COC(=O)[C@@H]1CC(O)CN1S(=O)(=O)c1ccccc1[N+](=O)[O-])Nc1ccc2ccccc2c1 (stereo not given in full), the “activity change, negative = inhibition” value was inactive: 59.5%.
For CCCCOc1ncnc2c1[nH]c1ccc(OC)cc12, the “activity change, negative = inhibition” value was inactive: 272%.
For COc1ccccc1N1CCN(C2CCCN(C(=O)c3cc(C4CC4)on3)C2)CC1 (stereo not given), the “activity change, negative = inhibition” value was inactive: 21.2%.
In the case of O=C(CSc1nc2c(sc3ccccc32)c(=O)n1CCCN1CCOCC1)NC1CCCC1, the Potency is reported as inconclusive: 4.65 µM [inhibitor, partial curve, poor fit].
In the case of Cc1ccc(N2C(=O)NC(=O)/C(=C/c3ccc(OC(=O)c4cccs4)cc3)C2=O)cc1, the Potency is reported as inconclusive: 5.22 µM [inhibitor, partial curve, poor fit].
With CCCCOc1ccc(OCCSc2nc3ccccc3n2CC(=O)O)cc1 the Potency was inconclusive: 18.5 µM [inhibitor, single point].
With O=C(NCc1cccnc1)c1ccccc1-c1nc(-c2ccccc2)no1 the Potency was inconclusive: 11.7 µM [inhibitor, single point].
In the case of Cc1cc(C)nc(Nc2ccc(F)cc2)n1, the “activity change, negative = inhibition” value is reported as inactive: 25.1%.
In the case of CCOc1cc(NC(=S)NCCCN2CCOCC2)c(OCC)cc1NC(=O)C1CCCCC1, the “activity change, negative = inhibition” value is reported as inactive: 27.3%.
For COC(=O)C[C@]1(C(=O)OC)CN(C#N)N(c2ccc(Cl)cc2)C12c1ccccc1-c1ccccc12, the Potency was active: 3.7 µM.
In the case of COc1ccc(CCNS(=O)(=O)c2ccc3c(c2)OCCO3)cc1OC, the Potency is reported as inconclusive: 6.57 µM [inhibitor, partial curve, poor fit].
With Cc1sc(NC(=S)Nc2ccc(F)cc2)c(C(N)=O)c1C the “activity change, negative = inhibition” value was inactive: 0%.
In the case of Oc1ccc(Br)cc1CNc1cnc2ccccc2c1, the Potency is reported as active: 11.7 µM.
